# Source: publication PMC7449970
# By UniProt entry, the sequences of proteins in these tests, tags left out. Where a name states a change or a piece, a line headed by the entry shows the natural chain unless it says otherwise.
# UniProt Q8NBS9: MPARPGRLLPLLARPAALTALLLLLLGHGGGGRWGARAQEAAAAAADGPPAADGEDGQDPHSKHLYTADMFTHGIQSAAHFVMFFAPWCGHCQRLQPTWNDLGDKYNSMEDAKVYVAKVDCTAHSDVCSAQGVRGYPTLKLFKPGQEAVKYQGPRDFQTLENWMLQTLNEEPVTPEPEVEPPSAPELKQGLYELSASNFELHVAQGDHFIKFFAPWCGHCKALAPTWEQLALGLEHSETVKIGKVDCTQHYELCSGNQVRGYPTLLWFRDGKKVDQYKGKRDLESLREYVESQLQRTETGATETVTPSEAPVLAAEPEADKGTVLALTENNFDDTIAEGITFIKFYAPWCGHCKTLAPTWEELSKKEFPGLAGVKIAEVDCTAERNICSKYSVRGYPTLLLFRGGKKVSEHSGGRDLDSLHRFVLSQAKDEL
# Molecular target: T1, human TGFBR1-Myc-Flag-tagged (human) (UniProt P36897)
# T1 sequence: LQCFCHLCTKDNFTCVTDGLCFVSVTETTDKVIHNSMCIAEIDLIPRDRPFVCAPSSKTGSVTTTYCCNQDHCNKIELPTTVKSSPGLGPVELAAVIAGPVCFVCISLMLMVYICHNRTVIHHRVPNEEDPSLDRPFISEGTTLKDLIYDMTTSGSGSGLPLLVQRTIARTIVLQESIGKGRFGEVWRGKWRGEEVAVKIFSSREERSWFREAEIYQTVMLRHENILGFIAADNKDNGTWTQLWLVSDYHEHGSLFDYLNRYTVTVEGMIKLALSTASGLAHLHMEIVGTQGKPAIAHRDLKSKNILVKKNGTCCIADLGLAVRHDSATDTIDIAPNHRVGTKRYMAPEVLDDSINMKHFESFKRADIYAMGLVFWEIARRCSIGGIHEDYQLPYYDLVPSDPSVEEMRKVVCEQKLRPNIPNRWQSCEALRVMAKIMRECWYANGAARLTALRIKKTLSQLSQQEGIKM
# Test: co-IP; lysates of NIH-3T3 fibroblasts transfected with mRNAs for 4 h; IP with anti-Flag or mouse IgG isotype control on protein G magnetic beads, and IP of WT or mutant TXNDC5 (TXNDC5 or HA); immunoblot
substance,measurement,value
HA-tagged mutant TXNDC5-AAA (from UniProt Q8NBS9),binding,no binding

# These are yes or no findings as the source states them, for the method shown. Binding seen in cells or lysates may run through a third protein. Where a sequence is shown, tags or fusion partners need not be part of it.
